These are yes or no findings as the source states them, for the method shown. In cells and extracts the contact can be indirect. Some binding calls cover weakened binding; strength is not graded here. For some assays here: Where a sequence is shown, tags or fusion partners need not be part of it.
How the values were obtained:
[1] = biological target: Toll-like receptor 2 (mouse (endogenous in peritoneal macrophages)) (UniProt Q9QUN7); assay: co-IP
[2] = biological target: T1, exogenous histidine-tagged CD157 (UniProt Q64277); assay: co-IP; only the target purified
T1 sequence: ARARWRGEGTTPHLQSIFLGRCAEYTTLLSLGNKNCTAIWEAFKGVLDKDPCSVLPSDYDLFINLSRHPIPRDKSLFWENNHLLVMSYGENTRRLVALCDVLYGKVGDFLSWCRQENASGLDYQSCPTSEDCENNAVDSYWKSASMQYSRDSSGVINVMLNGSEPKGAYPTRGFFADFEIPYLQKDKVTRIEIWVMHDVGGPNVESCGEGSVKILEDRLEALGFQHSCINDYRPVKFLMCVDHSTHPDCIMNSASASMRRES

Protein sequences, listed by entry. Tags and fused reporters are not part of them. Residues count along the entry.
UniProt Q9QUN7, residues 25-784: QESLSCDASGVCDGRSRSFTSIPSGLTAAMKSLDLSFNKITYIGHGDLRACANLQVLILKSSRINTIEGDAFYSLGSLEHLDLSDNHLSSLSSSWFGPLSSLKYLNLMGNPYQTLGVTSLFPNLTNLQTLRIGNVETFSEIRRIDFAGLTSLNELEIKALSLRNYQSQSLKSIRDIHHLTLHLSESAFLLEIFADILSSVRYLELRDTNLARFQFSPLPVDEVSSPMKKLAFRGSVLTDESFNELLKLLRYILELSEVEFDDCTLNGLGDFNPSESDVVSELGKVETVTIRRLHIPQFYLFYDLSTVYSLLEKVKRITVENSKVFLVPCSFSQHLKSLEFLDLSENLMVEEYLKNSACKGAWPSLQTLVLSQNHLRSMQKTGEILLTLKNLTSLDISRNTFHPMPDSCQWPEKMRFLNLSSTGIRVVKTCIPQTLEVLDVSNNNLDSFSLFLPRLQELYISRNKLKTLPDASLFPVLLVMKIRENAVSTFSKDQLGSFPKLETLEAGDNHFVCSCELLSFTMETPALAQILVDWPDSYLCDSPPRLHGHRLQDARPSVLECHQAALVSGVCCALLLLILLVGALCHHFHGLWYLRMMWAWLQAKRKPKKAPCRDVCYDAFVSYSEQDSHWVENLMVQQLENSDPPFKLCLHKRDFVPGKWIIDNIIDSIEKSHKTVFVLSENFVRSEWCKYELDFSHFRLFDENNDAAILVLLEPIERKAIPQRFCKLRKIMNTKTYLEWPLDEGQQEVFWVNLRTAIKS

binding [1]: binds
binding [2]: binds
B1: protein kinase Czeta (enzyme, UniProt Q02956 1-592)
chain: MPSRTDPKMDRSGGRVRLKAHYGGDILITSVDAMTTFKDLCEEVRDMCGLHQQHPLTLKWVDSEGDPCTVSSQMELEEAFRLVCQGRDEVLIIHVFPSIPEQPGMPCPGEDKSIYRRGARRWRKLYRANGHLFQAKRFNRGAYCGQCSERIWGLSRQGYRCINCKLLVHKRCHVLVPLTCRRHMDSVMPSQEPPVDDKNDGVDLPSEETDGIAYISSSRKHDNIKDDSEDLKPVIDGVDGIKISQGLGLQDFDLIRVIGRGSYAKVLLVRLKKNDQIYAMKVVKKELVHDDEDIDWVQTEKHVFEQASSNPFLVGLHSCFQTTSRLFLVIEYVNGGDLMFHMQRQRKLPEEHARFYAAEICIALNFLHERGIIYRDLKLDNVLLDADGHIKLTDYGMCKEGLGPGDTTSTFCGTPNYIAPEILRGEEYGFSVDWWALGVLMFEMMAGRSPFDIITDNPDMNTEDYLFQVILEKPIRIPRFLSVKASHVLKGFLNKDPKERLGCRPQTGFSDIKSHAFFRSIDWDLLEKKQTLPPFQPQITDDYGLDNFDTQFTSEPVQLTPDDEDVIKRIDQSEFEGFEYINPLLLSAEESV

— article PMC6712401
